Results: PMC5641590, “An Automated Platform for Assessment of Congenital and Drug-Induced Arrhythmia with hiPSC-Derived Cardiomyocytes” (Frontiers in Physiology, 2017)

What was measured:
[1] = test system: normal individual (iCell) hiPSC-CMs
neonatal rat atrial CMs = assay: VF2.1.Cl AP recording in isolated neonatal rat atrial CMs; assay type: cell-based; details: 0.3 μM E-4031; 1 μM acetylcholine; paced 0.3 Hz
Procedure: (§1) Neonatal atrial and ventricular rat cardiomyocytes were isolated with the neonatal rat cardiomyocyte isolation kit (Worthington, New Jersey, USA) (Toraason et al., [1989]; Macgregor et al., [1995]) and cultured at 37°C with 5% CO2. Briefly, heart atria and ventricles were dissected from 1 day old Hsd:Sprague-Dawley rats, then digested overnight at 4°C with trypsin. Digestion continued 12 h later with collagenase for approximately 90 min at 37°C. […] After 24 h, media was changed to low-serum medium (the same as above but substituting 0.25% FCS for 10% horse serum and 5% FCS). Seventy two hours after seeding the cells, they were processed for voltage imaging. All animal handling and care followed the NIH Guide for Care and Use of Laboratory Animals. […] EADs were quantified automatically using the default noise threshold in the whole well cardiac time series algorithm. […] Data tables were analyzed using Microsoft Excel 2013 and dose response curves and heat maps were calculated using GraphPad Prism 7 software. […]

[2] = test system: neonatal rat ventricular CMs; assay: VF2.1.Cl AP recording in isolated neonatal rat ventricular CMs; assay type: cell-based; details: 0.3 μM E-4031; 1 μM acetylcholine; paced 0.3 Hz
Procedure: as §1

Cc1cccc(CCN2CCC(C(=O)c3ccc(NS(C)(=O)=O)cc3)CC2)n1 [E-4031] was tested. Which “arrhythmia phenotype: APD prolongation, EADs, voltage alternans” value [1] did it give?
The value was “extensive dose-dependent prolongation of APD, induction of EADs and, at some doses, voltage alternans”.

What about the “effect on APD” value (neonatal rat atrial CMs) of the same compound?
The value was “not atrial CMs”.

And the “effect on APD” value [2]?
Its value is “prolonged APD in ventricular CMs”.
